{
  "source": "paper PMC12670160",
  "about": "“A drug-repurposing screen of FDA- and EMA-approved drugs identifies two NF-κB inhibitors active against eumycetoma” (Journal of Antimicrobial Chemotherapy, 2025)",
  "note": "This list holds what a sample rich in strong results left over.",
  "data": [
    {"tested_on": "M. mycetomatis strain mm55", "settings": "m. mycetomatis hyphae, 96 h, 2 µM", "units": {"% viability": "%"}, "values": [
      {"smiles": "CN1C(=O)CN=C(c2ccccc2)c2cc(Cl)ccc21", "note": "[ONC0003532, diazepam]", "% viability": 117.1}
    ]}
  ]
}
